Results published in article PMC8730729.
These are yes or no findings as the source states them, for the method shown. In cells and extracts the contact can be indirect. These calls come from enrichment with a bait or labelling near it, and not all partners need be listed. For some assays here: Sequences can lack the tags named with a protein.

Chains of the proteins cited; added tags and fusions are not shown.
UniProt Q86V87: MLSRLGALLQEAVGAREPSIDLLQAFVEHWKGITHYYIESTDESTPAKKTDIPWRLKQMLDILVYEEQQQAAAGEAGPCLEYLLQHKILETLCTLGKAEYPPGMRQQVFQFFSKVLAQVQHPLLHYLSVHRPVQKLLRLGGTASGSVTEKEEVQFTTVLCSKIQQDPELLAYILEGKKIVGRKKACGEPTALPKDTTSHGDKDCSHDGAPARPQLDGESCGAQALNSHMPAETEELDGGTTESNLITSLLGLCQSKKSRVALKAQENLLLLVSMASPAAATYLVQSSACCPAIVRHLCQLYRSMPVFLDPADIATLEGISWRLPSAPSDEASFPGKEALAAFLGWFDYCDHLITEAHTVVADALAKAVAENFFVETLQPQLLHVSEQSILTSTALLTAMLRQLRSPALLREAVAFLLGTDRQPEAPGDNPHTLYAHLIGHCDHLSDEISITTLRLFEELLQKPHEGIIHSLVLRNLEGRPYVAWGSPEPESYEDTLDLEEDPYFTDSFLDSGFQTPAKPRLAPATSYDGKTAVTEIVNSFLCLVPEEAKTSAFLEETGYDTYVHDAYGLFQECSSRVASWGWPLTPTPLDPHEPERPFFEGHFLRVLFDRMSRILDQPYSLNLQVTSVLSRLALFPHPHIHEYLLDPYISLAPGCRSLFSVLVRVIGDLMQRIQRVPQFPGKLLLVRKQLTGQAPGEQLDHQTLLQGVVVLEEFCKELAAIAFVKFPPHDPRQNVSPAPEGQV

B1: Hook2, endogenous in 293T cells (protein, UniProt Q96ED9 1-719)
chain: MSVDKAELCGSLLTWLQTFHVPSPCASPQDLSSGLAVAYVLNQIDPSWFNEAWLQGISEDPGPNWKLKVSNLKMVLRSLVEYSQDVLAHPVSEEHLPDVSLIGEFSDPAELGKLLQLVLGCAISCEKKQDHIQRIMTLEESVQHVVMEAIQELMTKDTPDSLSPETYGNFDSQSRRYYFLSEEAEEGDELQQRCLDLERQLMLLSEEKQSLAQENAGLRERMGRPEGEGTPGLTAKKLLLLQSQLEQLQEENFRLESGREDERLRCAELEREVAELQHRNQALTSLAQEAQALKDEMDELRQSSERAGQLEATLTSCRRRLGELRELRRQVRQLEERNAGHAERTRQLEDELRRAGSLRAQLEAQRRQVQELQGQRQEEAMKAEKWLFECRNLEEKYESVTKEKERLLAERDSLREANEELRCAQLQPRGLTQADPSLDPTSTPVDNLAAEILPAELRETLLRLQLENKRLCRQEAADRERQEELQRHLEDANRARHGLETQHRLNQQQLSELRAQVEDLQKALQEQGGKTEDAISILLKRKLEEHLQKLHEADLELQRKREYIEELEPPTDSSTARRIEELQHNLQKKDADLRAMEERYRRYVDKARMVMQTMEPKQRPAAGAPPELHSLRTQLRERDVRIRHLEMDFEKSRSQREQEEKLLISAWYNMGMALQQRAGEERAPAHAQSFLAQQRLATNSRRGPLGRLASLNLRPTDKH
B2: GOLGA5, endogenous in 293T cells (protein, UniProt Q8TBA6 1-731)
chain: MSWFVDLAGKAEDLLNRVDQGAATALSRKDNASNIYSKNTDYTELHQQNTDLIYQTGPKSTYISSAADNIRNQKATILAGTANVKVGSRTPVEASHPVENASVPRPSSHFVRRKKSEPDDELLFDFLNSSQKEPTGRVEIRKEKGKTPVFQSSQTSSVSSVNPSVTTIKTIEENSFGSQTHEAASNSDSSHEGQEESSKENVSSNAACPDHTPTPNDDGKSHELSNLRLENQLLRNEVQSLNQEMASLLQRSKETQEELNKARARVEKWNADHSKSDRMTRGLRAQVDDLTEAVAAKDSQLAVLKVRLQEADQLLSTRTEALEALQSEKSRIMQDQSEGNSLQNQALQTFQERLHEADATLKREQESYKQMQSEFAARLNKVEMERQNLAEAITLAERKYSDEKKRVDELQQQVKLYKLNLESSKQELIDYKQKATRILQSKEKLINSLKEGSGFEGLDSSTASSMELEELRHEKEMQREEIQKLMGQIHQLRSELQDMEAQQVNEAESAREQLQDLHDQIAGQKASKQELETELERLKQEFHYIEEDLYRTKNTLQSRIKDRDEEIQKLRNQLTNKTLSNSSQSELENRLHQLTETLIQKQTMLESLSTEKNSLVFQLERLEQQMNSASGSSSNGSSINMSGIDNGEGTRLRNVPVLFNDTETNLAGMYGKVRKAASSIDQFSIRLGIFLRRYPIARVFVIIYMALLHLWVMIVLLTYTPEMHHDQPYGK
B3: WDR11, endogenous in 293T cells (protein, UniProt Q9BZH6 1-1224)
chain: MLPYTVNFKVSARTLTGALNAHNKAAVDWGWQGLIAYGCHSLVVVIDSITAQTLQVLEKHKADVVKVKWARENYHHNIGSPYCLRLASADVNGKIIVWDVAAGVAQCEIQEHAKPIQDVQWLWNQDASRDLLLAIHPPNYIVLWNADTGTKLWKKSYADNILSFSFDPFDPSHLTLLTSEGIVFISDFSPSKPPSGPGKKVYISSPHSSPAHNKLATATGAKKALNKVKILITQEKPSAEFITLNDCLQLAYLPSKRNHMLLLYPREILILDLEVNQTVGVIAIERTGVPFLQVIPCFQRDGLFCLHENGCITLRVRRSYNNIFTTSNEEPDPDPVQELTYDLRSQCDAIRVTKTVRPFSMVCCPVNENAAALVVSDGRVMIWELKSAVCNRNSRNSSSGVSPLYSPVSFCGIPVGVLQNKLPDLSLDNMIGQSAIAGEEHPRGSILREVHLKFLLTGLLSGLPAPQFAIRMCPPLTTKNIKMYQPLLAVGTSNGSVLVYHLTSGLLHKELSIHSCEVKGIEWTSLTSFLSFATSTPNNMGLVRNELQLVDLPTGRSIAFRGERGNDESAIEMIKVSHLKQYLAVVFRDKPLELWDVRTCTLLREMSKNFPTITALEWSPSHNLKSLRKKQLATREAMARQTVVSDTELSIVESSVISLLQEAESKSELSQNISAREHFVFTDIDGQVYHLTVEGNSVKDSARIPPDGSMGSITCIAWKGDTLVLGDMDGNLNFWDLKGRVSRGIPTHRSWVRKIRFAPGKGNQKLIAMYNDGAEVWDTKEVQMVSSLRSGRNVTFRILDVDWCTSDKVILASDDGCIRVLEMSMKSACFRMDEQELTEPVWCPYLLVPRASLALKAFLLHQPWNGQYSLDISHVDYPENEEIKNLLQEQLNSLSNDIKKLLLDPEFTLLQRCLLVSRLYGDESELHFWTVAAHYLHSLSQEKSASTTAPKEAAPRDKLSNPLDICYDVLCENAYFQKFQLERVNLQEVKRSTYDHTRKCTDQLLLLGQTDRAVQLLLETSADNQHYYCDSLKACLVTTVTSSGPSQSTIKLVATNMIANGKLAEGVQLLCLIDKAADACRYLQTYGEWNRAAWLAKVRLNPEECADVLRRWVDHLCSPQVNQKSKALLVLLSLGCFFSVAETLHSMRYFDRAALFVEACLKYGAFEVTEDTEKLITAIYADYARSLKNLGFKQGAVLFASKAGAAGKDLLNELESPKEEPIEE
B4: SEC24B, endogenous in 293T cells (protein, UniProt O95487 1-1268)
chain: MSAPAGSSHPAASARIPPKFGGAAVSGAAAPAGPGAGPAPHQQNGPAQNQMQVPSGYGLHHQNYIAPSGHYSQGPGKMTSLPLDTQCGDYYSALYTVPTQNVTPNTVNQQPGAQQLYSRGPPAPHIVGSTLGSFQGAASSASHLHTSASQPYSSFVNHYNSPAMYSASSSVASQGFPSTCGHYAMSTVSNAAYPSVSYPSLPAGDTYGQMFTSQNAPTVRPVKDNSFSGQNTAISHPSPLPPLPSQQHHQQQSLSGYSTLTWSSPGLPSTQDNLIRNHTGSLAVANNNPTITVADSLSCPVMQNVQPPKSSPVVSTVLSGSSGSSSTRTPPTANHPVEPVTSVTQPSELLQQKGVQYGEYVNNQASSAPTPLSSTSDDEEEEEEDEEAGVDSSSTTSSASPMPNSYDALEGGSYPDMLSSSASSPAPDPAPEPDPASAPAPASAPAPVVPQPSKMAKPFGYGYPTLQPGYQNATAPLISGVQPSNPVYSGFQQYPQQYPGVNQLSSSIGGLSLQSSPQPESLRPVNLTQERNILPMTPVWAPVPNLNADLKKLNCSPDSFRCTLTNIPQTQALLNKAKLPLGLLLHPFRDLTQLPVITSNTIVRCRSCRTYINPFVSFIDQRRWKCNLCYRVNDVPEEFMYNPLTRSYGEPHKRPEVQNSTVEFIASSDYMLRPPQPAVYLFVLDVSHNAVEAGYLTILCQSLLENLDKLPGDSRTRIGFMTFDSTIHFYNLQEGLSQPQMLIVSDIDDVFLPTPDSLLVNLYESKELIKDLLNALPNMFTNTRETHSALGPALQAAFKLMSPTGGRVSVFQTQLPSLGAGLLQSREDPNQRSSTKVVQHLGPATDFYKKLALDCSGQQTAVDLFLLSSQYSDLASLACMSKYSAGCIYYYPSFHYTHNPSQAEKLQKDLKRYLTRKIGFEAVMRIRCTKGLSMHTFHGNFFVRSTDLLSLANINPDAGFAVQLSIEESLTDTSLVCFQTALLYTSSKGERRIRVHTLCLPVVSSLADVYAGVDVQAAICLLANMAVDRSVSSSLSDARDALVNAVVDSLSAYGSTVSNLQHSALMAPSSLKLFPLYVLALLKQKAFRTGTSTRLDDRVYAMCQIKSQPLVHLMKMIHPNLYRIDRLTDEGAVHVNDRIVPQPPLQKLSAEKLTREGAFLMDCGSVFYIWVGKGCDNNFIEDVLGYTNFASIPQKMTHLPELDTLSSERARSFITWLRDSRPLSPILHIVKDESPAKAEFFQHLIEDRTEAAFSYYEFLLHVQQQICK
B5: BET1, endogenous in 293T cells (protein, UniProt O15155 1-118)
chain: MRRAGLGEGVPPGNYGNYGYANSGYSACEEENERLTESLRSKVTAIKSLSIEIGHEVKTQNKLLAEMDSQFDSTTGFLGKTMGKLKILSRGSQTKLLCYMMLFSLFVFFIIYWIIKLR
B6: BET1L, endogenous in 293T cells (protein, UniProt Q9NYM9 1-111)
chain: MADWARAQSPGAVEEILDRENKRMADSLASKVTRLKSLALDIDRDAEDQNRYLDGMDSDFTSMTSLLTGSVKRFSTMARSGQDNRKLLCGMAVGLIVAFFILSYFLSRART
B7: STX5, endogenous in 293T cells (protein, UniProt Q13190 1-355)
chain: MIPRKRYGSKNTDQGVYLGLSKTQVLSPATAGSSSSDIAPLPPPVTLVPPPPDTMSCRDRTQEFLSACKSLQTRQNGIQTNKPALRAVRQRSEFTLMAKRIGKDLSNTFAKLEKLTILAKRKSLFDDKAVEIEELTYIIKQDINSLNKQIAQLQDFVRAKGSQSGRHLQTHSNTIVVSLQSKLASMSNDFKSVLEVRTENLKQQRSRREQFSRAPVSALPLAPNHLGGGAVVLGAESHASKDVAIDMMDSRTSQQLQLIDEQDSYIQSRADTMQNIESTIVELGSIFQQLAHMVKEQEETIQRIDENVLGAQLDVEAAHSEILKYFQSVTSNRWLMVKIFLILIVFFIIFVVFLA
B8: GOSR1, endogenous in 293T cells (protein, UniProt O95249 1-250)
chain: MAAGTSSYWEDLRKQARQLENELDLKLVSFSKLCTSYSHSSTRDGRRDRYSSDTTPLLNGSSQDRMFETMAIEIEQLLARLTGVNDKMAEYTNSAGVPSLNAALMHTLQRHRDILQDYTHEFHKTKANFMAIRERENLMGSVRKDIESYKSGSGVNNRRTELFLKEHDHLRNSDRLIEETISIAMATKENMTSQRGMLKSIHSKMNTLANRFPAVNSLIQRINLRKRRDSLILGGVIGICTILLLLYAFH
B9: GOSR2, endogenous in 293T cells (protein, UniProt O14653 1-212)
chain: MDPLFQQTHKQVHEIQSCMGRLETADKQSVHIVENEIQASIDQIFSRLERLEILSSKEPPNKRQNARLRVDQLKYDVQHLQTALRNFQHRRHAREQQERQREELLSRTFTTNDSDTTIPMDESLQFNSSLQKVHNGMDDLILDGHNILDGLRTQRLTLKGTQKKILDIANMLGLSNTVMRLIEKRAFQDKYFMIGGMLLTCVVMFLVVQYLT

target: FHIP2B tagged at the carboxy terminus with BioID2 and 3xFLAG (human) (UniProt Q86V87); experiment: proximity labelling; BioID2 fused to the carboxy terminus of the bait in stable doxycycline-inducible 293T lines; 50 µM biotin 16 hr; RIPA lysis, streptavidin beads, on-bead digestion, MS; hits ≥threefold over cytoplasmic BioID2 control or absent from it, p < 0.05, three of four replicates

binding, binds:
B1
B2

target: FHIP2A tagged at the carboxy terminus with BioID2 and 3xFLAG (human) (UniProt Q5W0V3); experiment: as above

binding, binds:
B1
B2
B3
B4
B5
B6
B7
B8
B9
